Library screen at single concentrations

Mtb cholesterol medium: 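Growth of Mycobacterium tuberculosis over 4 days (cholesterol / DPPC medium with tyloxapol); the read-out is not stated. Tested at 50 µM. The record gives no direction; compounds that gave an IC50 in retests scored well above the rest, so higher reads as more growth inhibition. About 69,000 compounds were tested under these conditions; 0.54% (about 370) showed 50% or more at least once.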
Mtb glucose medium: 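Phenotypic screen: M. tuberculosis growth, glucose 7H9 medium, 3 days; the read-out is not stated. Tested at 50 µM. Higher reads as more growth inhibition (inferred: compounds with an IC50 in retests scored well above the rest). Of about 69,000 compounds tested this way, about 760 (1.1%) reached 50% or more in at least one test.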

The filed quantity is “Percent Effect” (%). The record does not define 0% and 100%; most values in the screen are far below 50% and negative numbers occur (in some assays of this library far below -100). The compounds are a random part of those screened. Two or more numbers in one place are separate tests of the same structure; such repeats can differ widely.

Compound: Cc1cccc(-c2nc(CN3CCCC3Cn3cc(C)cn3)no2)c1 (centres undefined)
Mtb cholesterol medium: -26.72
Mtb glucose medium: -25.1

Compound: Cn1ccnc1CN1CCN(Cc2noc(C3CC3)n2)CC1
Mtb cholesterol medium: -16.97
Mtb glucose medium: -0.5784

Compound: CC(C)(C)c1csc(C2CCCCN2C(=O)CCn2cncn2)n1 (centres undefined)
Mtb cholesterol medium: 8.462
Mtb glucose medium: -0.8982

Compound: Cc1noc(C)c1CC(=O)NCC(C)N1CCOCC1 (centres undefined)
Mtb cholesterol medium: -4.53
Mtb glucose medium: -25.61

Compound: CCNC(=O)[C@@H]1C[C@@H](NC(=O)c2ccc(C#N)cc2)CN1CCCSC
Mtb cholesterol medium: -5.648
Mtb glucose medium: -0.9937

Compound: O=C(O)C(F)(F)F.O=C(O)C(F)(F)F.[H][C@@]12CCN(Cc3cccs3)C[C@]1(COc1cccnc1)CCO2
Mtb cholesterol medium: 12.23
Mtb glucose medium: 22.81

Compound: CC(C)N(C)S(=O)(=O)N1CCCC1CC(=O)c1cccs1 (centres undefined)
Mtb cholesterol medium: -4.649 and 20.24
Mtb glucose medium: 9.909

Compound: O=C1CCN(CCCS(=O)(=O)c2ccc(Cl)cc2)CCN1
Mtb cholesterol medium: -15.68
Mtb glucose medium: -28.82 and 3.386

Compound: COc1cc(C(=O)N2CCCC(CNS(C)(=O)=O)C2)cc(OC)c1C (centres undefined)
Mtb cholesterol medium: -6.08
Mtb glucose medium: -6.998

Compound: COc1ccc(-c2cn3c(n2)CO[C@@H](CNCc2nccn2C)C3)cc1
Mtb cholesterol medium: 5.748
Mtb glucose medium: 22.94 and -0.9229

Compound: Cn1ncc2c(N3CCC(CC(=O)N4CCCC4)CC3)ncnc21
Mtb cholesterol medium: -11.9
Mtb glucose medium: -19.55

Compound: O[C@H]1[C@H](n2cc(CN3CCCC3)nn2)c2ccccc2C12CCNCC2
Mtb cholesterol medium: -19.3
Mtb glucose medium: -4.824

Compound: CSc1ccc(NC(=O)Nc2ccc3c(c2)N(S(C)(=O)=O)CC3)cc1
Mtb cholesterol medium: 12.52
Mtb glucose medium: 37.5

Compound: O=C(N[C@H]1CN(C2CCOCC2)C[C@@H]1C1CC1)c1ccon1
Mtb cholesterol medium: 2.642 and -2.279
Mtb glucose medium: 26.46

Compound: Cc1cnn(CC(=O)N(CC2CN(C)CCO2)c2nccs2)c1 (centres undefined)
Mtb cholesterol medium: -3.1
Mtb glucose medium: 3.069

Compound: CS(=O)(=O)N1CCC(NC(=O)COc2ccc(Cl)cc2)CC1
Mtb cholesterol medium: -14.61
Mtb glucose medium: -22.25

Compound: CCOc1cc(C)c(-c2cc(N)[nH]n2)cc1OCC
Mtb cholesterol medium: -2.061
Mtb glucose medium: 20.78

Compound: COc1c(CNCc2ccc(CN3CCOCC3)cc2)c(C)nn1C
Mtb cholesterol medium: -8.104
Mtb glucose medium: -24.09

Compound: COCC1CN(S(=O)(=O)N(C)C)Cc2ncn(CC3CC3)c21.O=C(O)C(F)(F)F (centres undefined)
Mtb cholesterol medium: 18.34
Mtb glucose medium: 11.08

Compound: CNS(=O)(=O)c1ccc(C(=O)NCCNc2ncccn2)cc1
Mtb cholesterol medium: -9.538
Mtb glucose medium: -4.264

Compound: CC(=O)c1ccc(NC(=O)N[C@H](C(=O)O)C(C)C)cc1
Mtb cholesterol medium: 20.34
Mtb glucose medium: -14.65

Compound: CN1CCN(S(=O)(=O)C2CC2)Cc2cccnc21
Mtb cholesterol medium: -12
Mtb glucose medium: 7.553

Compound: COCCOc1ncccc1C(=O)N1CCCC1Cn1cc(C)cn1 (centres undefined)
Mtb cholesterol medium: 28.86
Mtb glucose medium: 12.33

Compound: O=C(O)C(F)(F)F.O=C(O)C(F)(F)F.c1ccc(N2CC[C@H](OCC3CC3)[C@@H]2Cc2cccnc2)nc1
Mtb cholesterol medium: 1.354
Mtb glucose medium: 17.19

Compound: O=C(CN1CCCNC1=O)Nc1ccccc1SC(F)(F)F
Mtb cholesterol medium: -7.868
Mtb glucose medium: -5.723

Compound: CCC(=O)N1CCC2(COCc3c(C)nc(NCc4ccco4)nc32)C1 (centres undefined)
Mtb cholesterol medium: 4.722
Mtb glucose medium: -12.72 and -18.41

Compound: Cc1nc(CCC(N)=O)cc(C2CCNCC2)n1
Mtb cholesterol medium: -14.13
Mtb glucose medium: -42.14

Compound: Cc1cc(C(=O)NCCC2CCN(C)CC2)ccc1N(C)S(C)(=O)=O
Mtb cholesterol medium: 4.974
Mtb glucose medium: 5.745 and -0.5335

Compound: CN(C(=O)c1cccnc1OCC(F)F)c1ccc2c(c1)CCO2
Mtb cholesterol medium: -0.4563
Mtb glucose medium: 12.73

Compound: CN(C)c1nccc(C2CN(S(C)(=O)=O)C2)n1
Mtb cholesterol medium: -17.85
Mtb glucose medium: 10.81

Compound: CCn1cc(CN2CCCN(C(=O)CCCn3cncn3)CC2)cn1
Mtb cholesterol medium: -1.698
Mtb glucose medium: 5.833

Compound: [H][C@]12CCN(C(=O)c3cc(C)on3)C[C@@]1([H])[C@H](CN1CCCC1)OC2
Mtb cholesterol medium: 3.286
Mtb glucose medium: 19.08

Compound: Cc1cc(S(C)(=O)=O)c(C)c(S(=O)(=O)NC2CCCC2)c1
Mtb cholesterol medium: 1.226
Mtb glucose medium: 18.11 and 1.574

Compound: CCCOCC(=O)Nc1ncc(I)cc1C
Mtb cholesterol medium: 15.85
Mtb glucose medium: 47.66

Compound: COc1c(CNC2CCCOc3ccccc32)c(C)nn1C (centres undefined)
Mtb cholesterol medium: -16.48
Mtb glucose medium: -6.725

Compound: CC(C)(CNC(=O)C(C)(C)Oc1ccc2c(c1)CCCC2=O)C(N)=O
Mtb cholesterol medium: 25.5
Mtb glucose medium: -15.22

Compound: CC(=O)N1CCN(CCOc2ccc(F)cc2)CC(C(N)=O)C1 (centres undefined)
Mtb cholesterol medium: 6.337
Mtb glucose medium: 6.857

For reference, 3 entries once more:

| Compound | Mtb cholesterol medium | Mtb glucose medium |
|---|---|---|
| `Cc1cc(C(=O)NCCC2CCN(C)CC2)ccc1N(C)S(C)(=O)=O` | 4.974 | 5.745 and -0.5335 |
| `Cc1cc(S(C)(=O)=O)c(C)c(S(=O)(=O)NC2CCCC2)c1` | 1.226 | 18.11 and 1.574 |
| `CCC(=O)N1CCC2(COCc3c(C)nc(NCc4ccco4)nc32)C1` (centres undefined) | 4.722 | -12.72 and -18.41 |

The values are deposited in ChEMBL (CHEMBL3988442, “University of Dundee, Small-Polar-MMV Screening Library” (2021)).